Drawing on PMC7038984, this text covers binding for one molecule.

In the test the target is T1, FLAG::CG33172 (Drosophila melanogaster) (UniProt Q86B53).
T1 sequence: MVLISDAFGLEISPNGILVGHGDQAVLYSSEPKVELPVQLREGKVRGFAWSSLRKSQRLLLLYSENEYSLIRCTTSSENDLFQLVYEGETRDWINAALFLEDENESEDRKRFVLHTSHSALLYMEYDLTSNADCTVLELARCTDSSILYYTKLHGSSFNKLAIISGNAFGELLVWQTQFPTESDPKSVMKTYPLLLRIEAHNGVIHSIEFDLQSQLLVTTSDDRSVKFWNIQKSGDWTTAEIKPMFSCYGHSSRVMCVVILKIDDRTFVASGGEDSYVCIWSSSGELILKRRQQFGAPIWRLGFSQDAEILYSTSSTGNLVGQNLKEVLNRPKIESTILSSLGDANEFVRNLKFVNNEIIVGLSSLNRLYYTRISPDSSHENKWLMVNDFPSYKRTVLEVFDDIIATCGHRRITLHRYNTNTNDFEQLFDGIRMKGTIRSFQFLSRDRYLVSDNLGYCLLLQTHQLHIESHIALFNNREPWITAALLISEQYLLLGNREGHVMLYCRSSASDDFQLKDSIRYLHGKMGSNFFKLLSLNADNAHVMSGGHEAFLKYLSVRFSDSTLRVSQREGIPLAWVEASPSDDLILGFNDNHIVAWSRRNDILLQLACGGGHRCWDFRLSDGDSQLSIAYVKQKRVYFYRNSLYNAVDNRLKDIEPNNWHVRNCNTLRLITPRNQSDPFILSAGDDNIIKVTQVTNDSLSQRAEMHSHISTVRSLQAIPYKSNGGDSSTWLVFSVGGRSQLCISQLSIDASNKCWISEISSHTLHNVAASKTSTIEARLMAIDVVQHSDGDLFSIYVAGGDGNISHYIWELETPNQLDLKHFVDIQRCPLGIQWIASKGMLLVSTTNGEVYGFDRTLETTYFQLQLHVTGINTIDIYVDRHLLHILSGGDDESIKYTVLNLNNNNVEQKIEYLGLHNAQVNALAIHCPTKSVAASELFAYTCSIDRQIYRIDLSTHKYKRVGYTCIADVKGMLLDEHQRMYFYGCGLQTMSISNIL
As to the kind of experiment: co-IP; GST::CG7009 or GST alone co-expressed with FLAG::CG33172 in E. coli C41; purified over Flag-coupled resin, washed three times in 500 mM KCl, eluted with Flag peptide; western blot with anti-GST HRP conjugate. On the technique in general: Immunoblotting shows a protein as a band on a membrane.

These are yes or no findings as the source states them, for the method shown. Binding seen in cells or lysates may run through a third protein. Some binding calls cover weakened binding; strength is not graded here. Tags and fused reporters may be left off the sequences shown.

B1: GST::CG7009 (enzyme, UniProt Q9VDD9 1-320)
chain: MGRTSKDKRDIFYRLAKEQGWRARSAFKLLQADETFQLLEGLTRAVDLCAAPGSWSQVLAKRLYEPLPPEEREKVKIIAVDLQGMAPIEGVKQLRADISKESTAEAIIEFFGGEKAQIVVSDGAPDSTGMHDFDSYVQGELLLSALSISTFILEEGGSFVSKIYRADRTSRLYTQLKRFFKNVCVFKPSASRNSSIEAFVVAREFCLPDGYKPCNLTTEWHDQPESWVGRKKESPPVVQVPFVAYKGELDSDRTYDLGENYVYKEPVQQPLTAAYQDILQKTSQVNIKYEGIRVIHDEEMLKKWLENDENKSEKLGACVT
Consider B1, for which the binding entry was “binds”.
